From patent US20160175412A1, “PREVENTION OF TYPE 1 DIABETES BY TREG VACCINATION WITH AN INSULIN MIMETOPE” (DANA-FARBER CANCER INSTITUTE, INC., priority 2010, published 2016)
For at least one compound, name, drawing or mass did not settle the structure.

Tested on: naive T cells
Test: retinoic acid effect on Treg conversion
Assay type: cell-based, mouse

With CC1=C(/C=C/C(C)=C/C=C/C(C)=C/C(=O)O)C(C)(C)CCC1 [RA, Retinoic acid] the Treg conversion (Smad3- and Smad4-deficient mice) was “strongly enhance” and the “effect on costimulation-mediated inhibition of conversion” value (naive T cells, absence of secreted cytokines) was “directly counteract the negative effect of costimulation”.
